Measurements as given in the supplement of paper PMC10849652.
This is one part of the list.

Protein sequences, listed by entry. Tags and fused reporters are not part of them. Lines headed by an entry give the natural chain unless they say otherwise; changes in a name come on top.
UniProt Q9BVC4, whole entry, looked up: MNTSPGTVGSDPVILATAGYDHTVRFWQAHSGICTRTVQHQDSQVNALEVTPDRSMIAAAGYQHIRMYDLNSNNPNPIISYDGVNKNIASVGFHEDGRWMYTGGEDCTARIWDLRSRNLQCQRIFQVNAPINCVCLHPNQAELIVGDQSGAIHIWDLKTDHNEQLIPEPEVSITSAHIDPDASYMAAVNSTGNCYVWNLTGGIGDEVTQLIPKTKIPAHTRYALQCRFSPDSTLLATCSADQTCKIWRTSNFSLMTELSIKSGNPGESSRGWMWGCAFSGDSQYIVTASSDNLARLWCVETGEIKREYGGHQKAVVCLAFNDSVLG
UniProt Q15014, whole entry, looked up: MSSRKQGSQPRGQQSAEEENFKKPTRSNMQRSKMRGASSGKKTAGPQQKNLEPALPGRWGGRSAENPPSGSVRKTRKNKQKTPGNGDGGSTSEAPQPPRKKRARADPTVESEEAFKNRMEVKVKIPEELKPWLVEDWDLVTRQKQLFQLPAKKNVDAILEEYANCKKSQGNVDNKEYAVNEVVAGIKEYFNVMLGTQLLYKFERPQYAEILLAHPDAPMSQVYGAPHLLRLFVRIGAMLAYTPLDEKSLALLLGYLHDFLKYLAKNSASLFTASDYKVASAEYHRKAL
UniProt P25325: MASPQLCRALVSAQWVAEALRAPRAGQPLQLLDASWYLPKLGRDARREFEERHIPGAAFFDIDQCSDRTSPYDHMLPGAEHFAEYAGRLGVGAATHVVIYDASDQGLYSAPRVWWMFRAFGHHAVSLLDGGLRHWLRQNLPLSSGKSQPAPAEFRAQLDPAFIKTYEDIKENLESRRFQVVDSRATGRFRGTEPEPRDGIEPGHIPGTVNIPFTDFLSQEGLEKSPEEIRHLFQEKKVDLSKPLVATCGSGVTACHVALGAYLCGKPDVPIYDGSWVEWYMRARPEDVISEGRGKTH
UniProt Q9H081: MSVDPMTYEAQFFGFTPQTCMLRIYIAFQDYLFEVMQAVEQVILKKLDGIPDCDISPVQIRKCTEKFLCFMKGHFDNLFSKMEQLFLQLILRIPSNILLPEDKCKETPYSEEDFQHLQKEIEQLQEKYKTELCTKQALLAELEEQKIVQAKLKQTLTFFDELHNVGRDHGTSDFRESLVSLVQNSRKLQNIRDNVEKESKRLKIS
UniProt Q5TGZ0: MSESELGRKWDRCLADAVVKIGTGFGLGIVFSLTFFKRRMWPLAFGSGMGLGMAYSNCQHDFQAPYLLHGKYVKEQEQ
UniProt O00566: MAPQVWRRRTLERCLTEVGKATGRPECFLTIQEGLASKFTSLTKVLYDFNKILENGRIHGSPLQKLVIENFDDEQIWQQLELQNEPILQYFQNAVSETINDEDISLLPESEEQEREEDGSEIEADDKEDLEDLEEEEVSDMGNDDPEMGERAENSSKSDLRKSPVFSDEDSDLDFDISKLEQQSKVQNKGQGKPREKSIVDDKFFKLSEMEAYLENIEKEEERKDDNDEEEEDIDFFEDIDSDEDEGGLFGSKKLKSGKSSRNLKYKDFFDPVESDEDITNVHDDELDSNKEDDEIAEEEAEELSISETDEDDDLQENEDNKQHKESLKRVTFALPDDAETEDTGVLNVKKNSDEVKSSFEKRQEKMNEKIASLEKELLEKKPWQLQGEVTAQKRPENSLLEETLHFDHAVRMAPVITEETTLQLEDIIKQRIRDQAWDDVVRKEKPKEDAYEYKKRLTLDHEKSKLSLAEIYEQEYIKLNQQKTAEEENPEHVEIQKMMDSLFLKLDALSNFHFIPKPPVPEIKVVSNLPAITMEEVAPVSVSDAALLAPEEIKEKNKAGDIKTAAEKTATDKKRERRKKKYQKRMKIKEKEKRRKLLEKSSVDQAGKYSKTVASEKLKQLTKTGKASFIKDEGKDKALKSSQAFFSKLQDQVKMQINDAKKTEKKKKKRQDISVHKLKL
UniProt Q9BRT3: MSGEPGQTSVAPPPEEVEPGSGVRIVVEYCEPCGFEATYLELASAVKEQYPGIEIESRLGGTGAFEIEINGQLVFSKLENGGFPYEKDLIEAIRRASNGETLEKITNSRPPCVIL
UniProt Q09328: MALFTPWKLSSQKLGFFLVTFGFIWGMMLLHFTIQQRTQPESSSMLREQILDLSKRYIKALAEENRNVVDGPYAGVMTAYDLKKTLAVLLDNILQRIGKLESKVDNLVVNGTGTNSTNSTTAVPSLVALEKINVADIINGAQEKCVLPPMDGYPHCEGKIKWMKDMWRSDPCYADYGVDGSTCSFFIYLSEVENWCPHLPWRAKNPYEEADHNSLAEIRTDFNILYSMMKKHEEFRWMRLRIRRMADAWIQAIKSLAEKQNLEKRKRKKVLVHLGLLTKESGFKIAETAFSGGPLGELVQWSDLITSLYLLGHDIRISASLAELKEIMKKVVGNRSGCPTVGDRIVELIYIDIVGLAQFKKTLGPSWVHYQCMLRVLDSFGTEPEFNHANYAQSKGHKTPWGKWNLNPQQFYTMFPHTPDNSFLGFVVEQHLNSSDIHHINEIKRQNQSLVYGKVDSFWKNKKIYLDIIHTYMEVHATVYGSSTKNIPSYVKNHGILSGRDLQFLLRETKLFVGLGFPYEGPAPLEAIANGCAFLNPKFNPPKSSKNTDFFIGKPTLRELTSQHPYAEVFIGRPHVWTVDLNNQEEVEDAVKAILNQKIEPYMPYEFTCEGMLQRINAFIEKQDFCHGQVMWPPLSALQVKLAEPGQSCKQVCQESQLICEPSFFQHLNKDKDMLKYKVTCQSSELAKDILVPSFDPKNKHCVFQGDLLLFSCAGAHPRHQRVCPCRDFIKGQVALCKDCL
UniProt Q9BUB5: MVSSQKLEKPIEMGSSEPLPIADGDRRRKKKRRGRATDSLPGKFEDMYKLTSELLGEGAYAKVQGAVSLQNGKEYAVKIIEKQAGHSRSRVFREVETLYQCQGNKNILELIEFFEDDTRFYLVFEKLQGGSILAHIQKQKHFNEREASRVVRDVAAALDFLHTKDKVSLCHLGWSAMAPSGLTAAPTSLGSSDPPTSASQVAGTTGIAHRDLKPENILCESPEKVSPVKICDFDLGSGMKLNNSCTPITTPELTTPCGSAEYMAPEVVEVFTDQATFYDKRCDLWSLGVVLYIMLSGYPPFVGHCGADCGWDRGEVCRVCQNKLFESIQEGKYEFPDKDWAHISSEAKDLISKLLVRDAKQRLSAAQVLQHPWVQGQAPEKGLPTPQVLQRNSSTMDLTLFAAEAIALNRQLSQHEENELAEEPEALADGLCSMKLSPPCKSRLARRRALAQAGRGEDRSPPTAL
UniProt P22033: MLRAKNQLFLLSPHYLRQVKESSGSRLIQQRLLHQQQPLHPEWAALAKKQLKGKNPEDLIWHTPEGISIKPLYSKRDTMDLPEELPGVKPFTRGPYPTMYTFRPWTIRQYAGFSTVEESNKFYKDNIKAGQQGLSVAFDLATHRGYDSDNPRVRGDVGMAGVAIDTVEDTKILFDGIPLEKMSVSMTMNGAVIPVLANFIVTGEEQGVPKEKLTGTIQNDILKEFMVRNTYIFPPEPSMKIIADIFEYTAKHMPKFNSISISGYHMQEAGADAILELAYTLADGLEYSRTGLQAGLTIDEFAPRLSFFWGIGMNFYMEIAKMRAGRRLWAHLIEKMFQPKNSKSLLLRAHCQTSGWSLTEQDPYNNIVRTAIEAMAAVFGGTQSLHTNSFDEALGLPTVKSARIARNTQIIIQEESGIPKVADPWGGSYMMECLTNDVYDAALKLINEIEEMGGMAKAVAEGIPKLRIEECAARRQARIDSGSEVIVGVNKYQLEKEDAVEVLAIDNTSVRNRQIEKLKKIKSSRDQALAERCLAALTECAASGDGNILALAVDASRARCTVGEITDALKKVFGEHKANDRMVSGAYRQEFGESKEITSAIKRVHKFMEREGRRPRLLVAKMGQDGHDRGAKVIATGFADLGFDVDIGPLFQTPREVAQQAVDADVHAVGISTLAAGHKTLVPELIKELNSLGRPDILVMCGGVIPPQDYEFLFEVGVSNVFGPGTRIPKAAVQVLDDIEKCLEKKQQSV
UniProt P51948: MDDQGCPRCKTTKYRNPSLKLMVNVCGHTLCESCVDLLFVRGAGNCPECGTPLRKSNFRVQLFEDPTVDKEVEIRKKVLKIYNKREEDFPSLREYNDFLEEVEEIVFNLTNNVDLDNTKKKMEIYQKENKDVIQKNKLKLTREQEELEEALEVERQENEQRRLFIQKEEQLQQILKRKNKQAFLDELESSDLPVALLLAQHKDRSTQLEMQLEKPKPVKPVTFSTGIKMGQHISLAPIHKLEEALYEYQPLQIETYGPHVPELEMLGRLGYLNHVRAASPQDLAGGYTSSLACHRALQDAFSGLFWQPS
UniProt Q96EY8: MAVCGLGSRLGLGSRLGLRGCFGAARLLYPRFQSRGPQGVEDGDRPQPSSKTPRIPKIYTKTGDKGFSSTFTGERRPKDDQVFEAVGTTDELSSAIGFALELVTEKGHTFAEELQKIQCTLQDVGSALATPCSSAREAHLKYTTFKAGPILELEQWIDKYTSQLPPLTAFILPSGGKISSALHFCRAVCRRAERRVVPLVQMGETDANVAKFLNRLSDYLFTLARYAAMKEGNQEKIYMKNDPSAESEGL
UniProt O94851, whole entry, looked up: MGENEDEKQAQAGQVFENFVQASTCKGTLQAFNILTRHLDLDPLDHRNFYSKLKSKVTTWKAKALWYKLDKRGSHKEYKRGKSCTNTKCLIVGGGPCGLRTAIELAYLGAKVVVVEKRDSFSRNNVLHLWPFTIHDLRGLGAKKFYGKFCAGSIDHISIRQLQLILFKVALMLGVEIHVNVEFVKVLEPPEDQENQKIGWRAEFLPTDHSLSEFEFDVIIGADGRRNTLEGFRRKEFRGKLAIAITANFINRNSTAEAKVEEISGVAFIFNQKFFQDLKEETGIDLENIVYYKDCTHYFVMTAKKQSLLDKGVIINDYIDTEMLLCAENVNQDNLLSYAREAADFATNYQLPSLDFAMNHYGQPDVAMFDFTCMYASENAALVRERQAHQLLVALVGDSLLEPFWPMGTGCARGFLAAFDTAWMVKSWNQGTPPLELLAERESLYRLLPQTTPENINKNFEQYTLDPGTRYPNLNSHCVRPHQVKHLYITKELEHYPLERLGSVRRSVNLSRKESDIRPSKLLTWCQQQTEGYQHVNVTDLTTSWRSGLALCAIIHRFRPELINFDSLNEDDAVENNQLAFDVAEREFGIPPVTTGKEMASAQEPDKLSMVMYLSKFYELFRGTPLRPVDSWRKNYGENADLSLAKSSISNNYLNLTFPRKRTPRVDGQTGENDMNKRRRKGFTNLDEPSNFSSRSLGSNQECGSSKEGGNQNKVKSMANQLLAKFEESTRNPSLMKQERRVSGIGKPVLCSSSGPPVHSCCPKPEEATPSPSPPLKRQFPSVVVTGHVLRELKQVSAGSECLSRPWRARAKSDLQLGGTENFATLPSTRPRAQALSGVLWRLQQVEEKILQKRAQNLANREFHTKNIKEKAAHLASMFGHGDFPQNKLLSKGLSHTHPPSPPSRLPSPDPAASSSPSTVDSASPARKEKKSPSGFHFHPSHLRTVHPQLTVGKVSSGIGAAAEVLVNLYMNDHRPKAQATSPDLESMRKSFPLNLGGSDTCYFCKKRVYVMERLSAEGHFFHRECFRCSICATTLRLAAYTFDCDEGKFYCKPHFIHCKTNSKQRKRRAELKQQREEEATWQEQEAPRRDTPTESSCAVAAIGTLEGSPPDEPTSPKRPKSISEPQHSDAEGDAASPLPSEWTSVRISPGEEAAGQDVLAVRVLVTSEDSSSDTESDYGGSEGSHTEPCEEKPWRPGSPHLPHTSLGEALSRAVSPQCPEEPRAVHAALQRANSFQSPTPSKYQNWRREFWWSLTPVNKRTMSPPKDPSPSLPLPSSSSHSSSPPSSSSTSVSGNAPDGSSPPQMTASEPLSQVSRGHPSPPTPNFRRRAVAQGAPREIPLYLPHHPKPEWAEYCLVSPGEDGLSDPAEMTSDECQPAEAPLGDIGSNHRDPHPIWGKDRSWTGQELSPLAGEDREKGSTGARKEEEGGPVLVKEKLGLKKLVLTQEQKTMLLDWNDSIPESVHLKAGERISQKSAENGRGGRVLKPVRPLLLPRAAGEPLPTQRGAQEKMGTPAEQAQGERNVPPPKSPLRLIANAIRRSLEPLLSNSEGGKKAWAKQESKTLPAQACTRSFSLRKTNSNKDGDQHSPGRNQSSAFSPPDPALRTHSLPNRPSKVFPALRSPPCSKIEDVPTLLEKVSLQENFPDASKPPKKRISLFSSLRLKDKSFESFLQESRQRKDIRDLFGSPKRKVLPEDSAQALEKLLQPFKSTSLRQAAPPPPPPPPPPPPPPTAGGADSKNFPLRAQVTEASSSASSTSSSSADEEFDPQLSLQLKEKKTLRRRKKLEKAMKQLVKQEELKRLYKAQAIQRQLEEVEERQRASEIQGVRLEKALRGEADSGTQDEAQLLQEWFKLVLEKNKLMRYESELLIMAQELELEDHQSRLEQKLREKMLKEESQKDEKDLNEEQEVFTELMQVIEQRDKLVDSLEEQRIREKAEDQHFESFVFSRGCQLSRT

Experiments:
Assay in all cases: log2 fold change, soluble protein after heating vs DMSO (PISA); higher = thermal stabilisation; K562 lysate, 10 uM; active = over 0.2 and 3.5 SD of the protein, either way, in both replicates (recomputed)
ibrutinib = compound: C=CC(=O)N1CCC[C@@H](n2nc(-c3ccc(Oc4ccccc4)cc3)c3c(N)ncnc32)C1 [ibrutinib]
In short: (§1)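 Dounce homogenisation of K562 pellets in PBS pH 7.4 with 1 mM MgCl2 produced a crude extract, used at 1 mg/mL protein. Exposure to 10 μM compound lasted 30 min, and aliquots were then heated for 3 min across 48°C-58°C, pooled and brought to 0.5% NP-40 at 4°C. The supernatant after 21,000xg for 90 min was quantified by TMTpro 16plex LC-MS/MS with channel sums equalised. Duplicate values are given as log-two fold change in thermal stability relative to solvent controls.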

[1] = compound: CC(=O)c1cnc2ccc(-c3cc(Cl)c(O)c(Cl)c3)nc2c1N[C@H]1CC[C@H](CN(C)C)CC1
In short: as §1

ralimetinib = compound: CC(C)(C)Cn1c(N)nc2ccc(-c3[nH]c(C(C)(C)C)nc3-c3ccc(F)cc3)nc21 [ralimetinib]
In short: as §1

[2] = compound: CC(C)(O)CC(=O)NCCn1ccc2ncnc(Nc3ccc(Oc4cccc(C(F)(F)F)c4)c(Cl)c3)c21
In short: as §1

[3] = compound: CC(C)C1=C2N=C(C=C(N2N=C1)NCC3=CC=CC=C3)NCCCCCCN
In short: as §1

[4] = compound: CC1=C(C(CC(=O)N1)C2=CC=C(C=C2)C(F)(F)F)C(=O)NC3=C(C=C4C(=C3)C=NN4)F
In short: as §1

[5] = compound: CC1=C(C2=C(C=C1)C(=O)C3=CC=CC=C3N2CCCN)C
In short: as §1

[6] = compound: CC1=C(C=C(C=C1)NC(=O)C2=CC(=CC=C2)C(C)(C)C#N)NC3=CC4=C(C=C3)N=CN(C4=O)C
In short: as §1

[7] = compound: CC1=C(C=C(C=C1)NC(=O)C2=CC(=CC=C2)N(C)C)NC(=O)C3=CC=C(C=C3)O
In short: as §1

[8] = compound: CC1=CC=C(C=C1)SC2=C3C=C(SC3=CN=C2)C(=O)N
In short: as §1

Measured: log2 fold change

MINDY1 isoform 3 (UniProt Q8N5J2)
inactive: ibrutinib 0.199 | [1] 0 | ralimetinib 0.001 | [2] -0.121 | [3] -0.022 | [4] -0.179 | [5] -0.161 | [6] -0.034 | [7] 0.015 | [8] 0.065

MPV17 (UniProt P39210)
inactive: ibrutinib 0.073 | [1] 0.03 | ralimetinib 0.195 | [2] -0.07 | [3] 0.136 | [4] -0.211 | [5] -0.04 | [6] 0.175 | [7] -0.102 | [8] 0.018

MIF4GD isoform 3 (UniProt A9UHW6)
inactive: ibrutinib 0.108 | [1] -0.032 | ralimetinib -0.04 | [2] -0.014 | [3] 0.016 | [4] -0.002 | [5] -0.049 | [6] 0 | [7] -0.04 | [8] -0.004

MICU1 isoform 3 (UniProt Q9BPX6)
inactive: ibrutinib -0.011 | [1] -0.021 | ralimetinib 0.023 | [2] 0.001 | [3] -0.02 | [4] 0 | [5] 0.013 | [6] -0.028 | [7] 0.038 | [8] 0.019

MLST8 (UniProt Q9BVC4)
inactive: ibrutinib 0 | [1] 0.011 | ralimetinib -0.038 | [2] 0.021 | [3] 0.063 | [4] -0.042 | [5] -0.021 | [6] -0.003 | [7] 0.044 | [8] 0.023

MORF4L2 (UniProt Q15014)
inactive: ibrutinib -0.022 | [1] 0.002 | ralimetinib 0 | [2] -0.032 | [3] 0.004 | [4] -0.005 | [5] -0.026 | [6] -0.031 | [7] 0.031 | [8] -0.003

MPST isoform 2 (UniProt P25325)
inactive: ibrutinib 0.023 | [1] -0.014 | ralimetinib -0.014 | [2] -0.01 | [3] 0.018 | [4] -0.019 | [5] -0.007 | [6] 0.001 | [7] 0 | [8] 0.029

MIS12 (UniProt Q9H081)
inactive: ibrutinib 0.117 | [1] -0.035 | ralimetinib 0.057 | [2] -0.035 | [3] -0.026 | [4] -0.001 | [5] 0.024 | [6] 0.01 | [7] -0.001 | [8] -0.016

MPP6 (UniProt Q9NZW5)
inactive: ibrutinib -0.017 | [1] 0.011 | ralimetinib 0.004 | [2] -0.035 | [3] -0.001 | [4] 0.013 | [5] 0.02 | [6] -0.024 | [7] 0.018 | [8] 0.021

MICOS10 (UniProt Q5TGZ0)
inactive: ibrutinib -0.106 | [1] 0.004 | ralimetinib 0.047 | [2] -0.044 | [3] 0.026 | [4] -0.11 | [5] -0.031 | [6] 0.012 | [7] -0.036 | [8] 0.051

MORC2 (UniProt Q9Y6X9)
inactive: ibrutinib 0.065 | [1] 0.02 | ralimetinib 0.054 | [2] -0.035 | [3] -0.039 | [4] -0.001 | [5] -0.026 | [6] -0.037 | [7] 0.072 | [8] 0.004

MRPL12 (UniProt P52815)
inactive: ibrutinib 0.082 | [1] -0.05 | ralimetinib 0.006 | [2] -0.013 | [3] -0.029 | [4] -0.042 | [5] 0 | [6] 0.026 | [7] 0.012 | [8] 0.076

MIEF1 (UniProt L0R8F8)
inactive: ibrutinib 0.078 | [1] -0.002 | ralimetinib -0.035 | [2] -0.061 | [3] 0.003 | [4] 0.017 | [5] -0.022 | [6] -0.003 | [7] 0.025 | [8] -0.017

MPHOSPH10 (UniProt O00566)
inactive: ibrutinib -0.013 | [1] 0.012 | ralimetinib 0.035 | [2] 0.014 | [3] 0.06 | [4] -0.036 | [5] -0.02 | [6] 0.005 | [7] -0.029 | [8] 0.02

MOV10 (UniProt Q9HCE1)
inactive: ibrutinib -0.009 | [1] -0.094 | ralimetinib 0.023 | [2] -0.019 | [3] -0.008 | [4] 0.003 | [5] -0.046 | [6] -0.016 | [7] -0.012 | [8] 0.007

MIEN1 (UniProt Q9BRT3)
inactive: ibrutinib 0.053 | [1] -0.068 | ralimetinib 0.025 | [2] -0.05 | [3] -0.012 | [4] -0.038 | [5] -0.003 | [6] -0.052 | [7] 0.009 | [8] 0.063

MGAT5 (UniProt Q09328)
inactive: ibrutinib 0.038 | [1] 0.014 | ralimetinib 0.001 | [2] 0.039 | [3] -0.045 | [4] -0.084 | [5] 0.005 | [6] -0.002 | [7] -0.004 | [8] 0.014

MIOS (UniProt Q9NXC5)
inactive: ibrutinib 0.029 | [1] 0.029 | ralimetinib 0.029 | [2] 0.007 | [3] 0.006 | [4] -0.009 | [5] 0.011 | [6] 0.022 | [7] 0.009 | [8] -0.022

MKNK1 (UniProt Q9BUB5)
inactive: ibrutinib 0.041 | [1] 0.06 | ralimetinib 0.02 | [2] -0.019 | [3] 0.017 | [4] -0.018 | [5] -0.03 | [6] 0.008 | [7] -0.014 | [8] -0.017

MME (UniProt P08473)
inactive: ibrutinib 0.286 | [1] -0.093 | ralimetinib -0.117 | [2] -0.156 | [3] -0.012 | [4] -0.024 | [5] -0.23 | [6] 0.007 | [7] -0.025 | [8] -0.043

MMUT (UniProt P22033)
inactive: ibrutinib 0.036 | [1] 0.02 | ralimetinib 0 | [2] 0.015 | [3] -0.008 | [4] 0.007 | [5] 0.021 | [6] -0.025 | [7] -0.003 | [8] 0.014

MPRIP isoform 2 (UniProt Q6WCQ1)
inactive: ibrutinib 0.026 | [1] -0.086 | ralimetinib 0.027 | [2] -0.018 | [3] -0.005 | [4] -0.013 | [5] 0.001 | [6] -0.036 | [7] 0.072 | [8] 0.029

MNAT1 (UniProt P51948)
inactive: ibrutinib 0.033 | [1] -0.029 | ralimetinib 0.007 | [2] -0.035 | [3] 0.013 | [4] 0.014 | [5] -0.017 | [6] 0.047 | [7] -0.018 | [8] -0.016

MMAB (UniProt Q96EY8)
inactive: ibrutinib -0.011 | [1] -0.002 | ralimetinib -0.025 | [2] -0.025 | [3] -0.023 | [4] 0 | [5] -0.073 | [6] -0.042 | [7] 0.031 | [8] -0.007

Retrieved one by one from above, two records:
MRPL12 (UniProt P52815)
inactive: ibrutinib 0.082 | [1] -0.05 | ralimetinib 0.006 | [2] -0.013 | [3] -0.029 | [4] -0.042 | [5] 0 | [6] 0.026 | [7] 0.012 | [8] 0.076

MLST8 (UniProt Q9BVC4)
inactive: ibrutinib 0 | [1] 0.011 | ralimetinib -0.038 | [2] 0.021 | [3] 0.063 | [4] -0.042 | [5] -0.021 | [6] -0.003 | [7] 0.044 | [8] 0.023

Following part:

MRPL20 (UniProt Q9BYC9)
inactive: ibrutinib 0.067 | [1] -0.001 | ralimetinib 0.003 | [2] 0.002 | [3] -0.032 | [4] -0.094 | [5] -0.098 | [6] 0.009 | [7] 0.01 | [8] 0.204

MRPL13 (UniProt Q9BYD1)
inactive: ibrutinib -0.027 | [1] -0.033 | ralimetinib 0.012 | [2] -0.003 | [3] -0.023 | [4] -0.003 | [5] -0.024 | [6] -0.036 | [7] 0.009 | [8] 0.029

MICAL2 (UniProt O94851)
inactive: ibrutinib 0.05 | [1] 0.2 | ralimetinib -0.046 | [2] 0.056 | [3] -0.004 | [4] -0.075 | [5] 0.236 | [6] 0.049 | [7] 0.034 | [8] -0.133
